Measurements reported in PubChem BioAssay AID1224830 (NIAID, 2016)
Purpose: 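Regulators of TLR4 signalling towards TNF-alpha in macrophage-like cells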 (primary screen). System: human THP-1 monocytic leukaemia cells, TNF dual-luciferase reporter clone, PMA-differentiated to macrophage-like cells. Reagent: siRNA pool against human genes, 50 nM. Duration: LPS for 4 h, given about 3 days after siRNA transfection. Challenge: bacterial LPS (TLR4 ligand), 10 ng/ml. Measurement: 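TNF firefly reporter luminescence divided by renilla, normalised to the plate median, then turned into a robust z-score for each replicate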. Reading the numbers: TNF reporter robust z-score: higher = stronger TNF reporter response to LPS. Hit rule: 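Each well counts as active if its z-score is over 2.8 or under -1.5; controls are left without a call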.
Here is one part, drawn at random, of about 18,000 reagents tested. About 2,900 of all reagents (16%) count as active. 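Calls are made per well; low scores hint the gene aids the LPS response, high scores that it dampens it.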 Repeated entries: four replicate wells of each siRNA pool.

gene	TNF reporter robust z-score	Call
DMAP1 (GeneID 55929)	-0.23	inactive
DMAP1 (GeneID 55929)	0.66	inactive
DMAP1 (GeneID 55929)	0.27	inactive
DMAP1 (GeneID 55929)	1.36	inactive
RAB11B (GeneID 9230)	0.52	inactive
RAB11B (GeneID 9230)	0.68	inactive
RAB11B (GeneID 9230)	0.32	inactive
RAB11B (GeneID 9230)	1.09	inactive
CIRSR (GeneID 9541)	-0.26	inactive
CIRSR (GeneID 9541)	-0.41	inactive
CIRSR (GeneID 9541)	-0.2	inactive
CIRSR (GeneID 9541)	-0.63	inactive
CLC (GeneID 1178)	-1.19	inactive
CLC (GeneID 1178)	0.57	inactive
CLC (GeneID 1178)	-0.83	inactive
CLC (GeneID 1178)	-0.3	inactive
SNX31 (GeneID 169166)	-0.39	inactive
SNX31 (GeneID 169166)	0.28	inactive
SNX31 (GeneID 169166)	0.1	inactive
SNX31 (GeneID 169166)	0.6	inactive
HLA-DRA (GeneID 3122)	-0.36	inactive
HLA-DRA (GeneID 3122)	-0.14	inactive
HLA-DRA (GeneID 3122)	-0.22	inactive
HLA-DRA (GeneID 3122)	-0.1	inactive
ITPRIPL2 (GeneID 162073)	0.23	inactive
ITPRIPL2 (GeneID 162073)	1.34	inactive
ITPRIPL2 (GeneID 162073)	0.37	inactive
ITPRIPL2 (GeneID 162073)	1.65	inactive
SLC17A6 (GeneID 57084)	-1.27	inactive
SLC17A6 (GeneID 57084)	-0.76	inactive
SLC17A6 (GeneID 57084)	-0.58	inactive
SLC17A6 (GeneID 57084)	-1.09	inactive
PLSCR4 (GeneID 57088)	-0.53	inactive
PLSCR4 (GeneID 57088)	0.38	inactive
PLSCR4 (GeneID 57088)	-0.75	inactive
PLSCR4 (GeneID 57088)	-1.03	inactive
SUGT1 (GeneID 10910)	-0.41	inactive
SUGT1 (GeneID 10910)	-0.28	inactive
SUGT1 (GeneID 10910)	0.18	inactive
SUGT1 (GeneID 10910)	-0.15	inactive
CELA2B (GeneID 51032)	-0.67	inactive
CELA2B (GeneID 51032)	-0.23	inactive
CELA2B (GeneID 51032)	0.33	inactive
CELA2B (GeneID 51032)	-0.37	inactive
ZNF75A (GeneID 7627)	0.22	inactive
ZNF75A (GeneID 7627)	0.07	inactive
ZNF75A (GeneID 7627)	0.18	inactive
ZNF75A (GeneID 7627)	0.99	inactive
S100A12 (GeneID 6283)	-0.63	inactive
S100A12 (GeneID 6283)	0.31	inactive
S100A12 (GeneID 6283)	-0.16	inactive
S100A12 (GeneID 6283)	-0.25	inactive
OCLN (GeneID 100506658)	-0.57	inactive
OCLN (GeneID 100506658)	-0.34	inactive
OCLN (GeneID 100506658)	1.57	inactive
OCLN (GeneID 100506658)	-0.81	inactive
MARCHF8 (GeneID 220972)	-0.83	inactive
MARCHF8 (GeneID 220972)	1.33	inactive
MARCHF8 (GeneID 220972)	2.38	inactive
MARCHF8 (GeneID 220972)	1.04	inactive
C4orf46 (GeneID 201725)	0.36	inactive
C4orf46 (GeneID 201725)	-0.28	inactive
C4orf46 (GeneID 201725)	0.24	inactive
C4orf46 (GeneID 201725)	0.08	inactive
KRTAP15-1 (GeneID 254950)	0.33	inactive
KRTAP15-1 (GeneID 254950)	0.51	inactive
KRTAP15-1 (GeneID 254950)	0.38	inactive
KRTAP15-1 (GeneID 254950)	0.56	inactive
MNX1 (GeneID 3110)	1.28	inactive
MNX1 (GeneID 3110)	1.43	inactive
MNX1 (GeneID 3110)	1.01	inactive
MNX1 (GeneID 3110)	2.22	inactive
SYNE2 (GeneID 23224)	-0.77	inactive
SYNE2 (GeneID 23224)	-1.03	inactive
SYNE2 (GeneID 23224)	-1.1	inactive
SYNE2 (GeneID 23224)	-0.87	inactive
